These are yes or no findings as the source states them, for the method shown.
Target: T1, NG domain of the chloroplast SRP receptor (cp)FtsY, (cp)FtsY-NG (Arabidopsis thaliana) (UniProt O80842)
T1 sequence: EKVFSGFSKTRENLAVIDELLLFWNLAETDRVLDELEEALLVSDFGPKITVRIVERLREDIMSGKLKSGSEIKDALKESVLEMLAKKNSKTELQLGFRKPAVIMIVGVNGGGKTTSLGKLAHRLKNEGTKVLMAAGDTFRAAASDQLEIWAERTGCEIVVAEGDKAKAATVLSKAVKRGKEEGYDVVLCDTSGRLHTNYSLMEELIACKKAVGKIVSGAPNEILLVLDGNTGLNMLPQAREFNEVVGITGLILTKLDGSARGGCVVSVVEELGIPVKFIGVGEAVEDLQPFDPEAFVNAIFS
Assay: SEC; analytical SEC, Superdex 200 Increase 10/300 GL; 100 uM of each protein in buffer C, without GppNHp; both purified

B1: chloroplast signal recognition particle 54 kDa protein, (cp)SRP54 (protein, UniProt P37107 79-564)
chain: GQLTGGLEAAWSKLKGEEVLTKDNIAEPMRDIRRALLEADVSLPVVRRFVQSVSDQAVGMGVIRGVKPDQQLVKIVHDELVKLMGGEVSELQFAKSGPTVILLAGLQGVGKTTVCAKLACYLKKQGKSCMLIAGDVYRPAAIDQLVILGEQVGVPVYTAGTDVKPADIAKQGLKEAKKNNVDVVIMDTAGRLQIDKGMMDELKDVKKFLNPTEVLLVVDAMTGQEAAALVTTFNVEIGITGAILTKLDGDSRGGAALSVKEVSGKPIKLVGRGERMEDLEPFYPDRMAGRILGMGDVLSFVEKATEVMRQEDAEDLQKKIMSAKFDFNDFLKQTRAVAKMGSMTRVLGMIPGMGKVSPAQIREAEKNLLVMEAMIEVMTPEERERPELLAESPERRKRIAKDSGKTEQQVSALVAQIFQMRVKMKNLMGVMEGGSIPALSGLEDALKAEQKAPPGTARRKRKADSRKKFVESASSKPGPRGFGSGN
binding: no binding (condition: without GppNHp)

— paper PMC12104861, “Structural and mechanistic basis for the regulation of the chloroplast signal recognition particle by (p)ppGpp” (Febs Letters, 2025)
